The record followed here is the supplement of paper PMC5711842.

The structures appear in SMILES notation. Structures can show the parent of a compound that is named as a salt. Single values of this set are uncertain.

For the experiment, the system named is Danio rerio embryo. Description: lowest lethal concentration (of 2, 10, 50 µM tested), 10-36 hpf treatment; higher = less toxic. Particulars: treatment window: 10-36 hpf.

The molecule `CC/C(=C(\c1ccccc1)c1ccc(OCCN(C)C)cc1)c1ccccc1` [Tamoxifen] returned a lowest lethal concentration above 50 µM.
In the case of `O=S(=O)(NCCNC/C=C/c1ccc(Br)cc1)c1cccc2cnccc12` [H-89] it was above 50 µM; in that of `N#C/C(=C(/N)Sc1ccccc1N)c1cccc(C(O)c2ccncc2)c1` (centres undefined) [MEK Inhibitor I], above 50 µM; in that of `CN(C)CCCn1cc(C2=C(c3c[nH]c4ccccc34)C(=O)NC2=O)c2ccccc21` [Bisindolylmaleimide I], above 50 µM.
In turn, `CCOc1ccc(Nc2nc(-c3c(C)nc4ccccn34)cs2)cc1` [JK 184] registered a lowest lethal concentration of 2 µM.
In the case of `O=C(c1ccc(Cl)cc1Cl)n1nnc2ccccc21` [ITSA1] it was above 50 µM; in that of `COc1cc2ncc(-c3ccccc3)nc2cc1OC` [AG 1296], above 50 µM; in that of `COc1cccc(-c2cc(=O)c3ccccc3o2)c1N`, 50 µM.
In the case of `COc1ccc(Cl)cc1NC(=O)Nc1cc(C)nc2ccccc12` [IGF-1R Inhibitor II], the lowest lethal concentration was above 50 µM.
In the case of `COc1cc(C(C)=O)ccc1O` [Acetovanillone] it was above 50 µM; in that of `c1ccc(-c2[nH]ncc2-c2ccnc3ccccc23)nc1`, above 50 µM.
Molecule `CCC(C)(C)C(=O)O[C@H]1C[C@@H](C)C=C2C=C[C@H](C)[C@H](CC[C@@H](O)C[C@@H](O)CC(=O)O)[C@H]21` [Simvastatin sodiumÂ] registered a lowest lethal concentration above 50 µM.
Molecule `O=[N+]([O-])c1ccc(CNc2nc(NCc3cccc(C(F)(F)F)c3)nc3nc[nH]c23)cc1` [IP3K Inhibitor] yielded a lowest lethal concentration above 50 µM.
Under `CC(=O)N[C@@H](CSC/C=C(\C)CC/C=C(\C)CCC=C(C)C)C(=O)O` [N-Acetyl-S-farnesyl-L-cysteine] stands above 50 µM.
Turning to `O=C1NC(=O)C(c2cn(CCCO)c3ncccc23)=C1c1cnccn1` [GSK-3beta Inhibitor XI], the lowest lethal concentration is above 50 µM.
The molecule `O=c1c(N=Nc2ccc(S(=O)(=O)O)cc2)c(-c2ccc([N+](=O)[O-])cc2)[nH]n1-c1ccccc1` [PHPS1] displayed a lowest lethal concentration above 50 µM.
In the case of `CCCCc1oc2ccccc2c1C(=O)c1cc(I)c(OCCN(CC)CC)c(I)c1` [Amiodarone] it was above 50 µM; in that of `COC(=O)c1ccc(/C=C/c2ccc([N+](=O)[O-])o2)o1` [betaARK1 Inhibitor], above 50 µM.
Regarding `NCCc1c[nH]c2ccc(O)cc12` [Serotonin Hydrochloride], the lowest lethal concentration is above 50 µM.
In the case of `COc1cccc2c1cc([N+](=O)[O-])c1c(C(=O)O)cc3c(c12)OCO3` [Aristolochic Acid] it was above 50 µM; in that of `Nc1ncnc2n[nH]c(Nc3ccc(F)cc3)c12`, above 50 µM; in that of `CC(C)(Oc1ccc(CCNC(=O)c2ccc(Cl)cc2)cc1)C(=O)O` [Bezafibrate], above 50 µM.
Under `C[C@@H](N)[C@H]1CC[C@H](C(=O)Nc2ccncc2)CC1` stands above 50 µM; under `CO[C@H]1C[C@@H]2CC[C@@H](C)[C@@](O)(O2)C(=O)C(=O)N2CCCC[C@H]2C(=O)O[C@H]([C@H](C)C[C@@H]2CC[C@@H](O)[C@H](OC)C2)CC(=O)[C@H](C)/C=C(\C)[C@@H](O)[C@@H](OC)C(=O)[C@H](C)C[C@H](C)/C=C/C=C/C=C/1C` [Rapamycin], above 50 µM.
In the case of `CCCCC[C@H](O)CC(=O)CCc1ccc(O)c(OC)c1` [Gingerol] it was above 50 µM.
Molecule `O=C1c2ccccc2-c2n[nH]c3cccc1c23` gave a lowest lethal concentration of 50 µM.
Under `C[C@H]1COC2=C1C(=O)C(=O)c1c2ccc2c1CCCC2(C)C` [Cryptotanshinone] stands 50 µM; under `CCc1sc(N)nc1-c1ccc(OC)cc1`, above 50 µM; under `CN/C(=N\c1ccc(C2=NNC(=O)CC2C)cc1)NC#N` (centres undefined) [Siguazodan], above 50 µM.
